From paper PMC4970767
These are yes or no findings as the source states them, for the method shown. In cells and extracts the contact can be indirect. A result given as binding can be weak or reduced; the word gives no strength.

By UniProt entry, the sequences of proteins in these tests, tags left out. Where a name states a change or a piece, a line headed by the entry shows the natural chain unless it says otherwise. Residues count along the entry.
UniProt P20029, residues 20-655: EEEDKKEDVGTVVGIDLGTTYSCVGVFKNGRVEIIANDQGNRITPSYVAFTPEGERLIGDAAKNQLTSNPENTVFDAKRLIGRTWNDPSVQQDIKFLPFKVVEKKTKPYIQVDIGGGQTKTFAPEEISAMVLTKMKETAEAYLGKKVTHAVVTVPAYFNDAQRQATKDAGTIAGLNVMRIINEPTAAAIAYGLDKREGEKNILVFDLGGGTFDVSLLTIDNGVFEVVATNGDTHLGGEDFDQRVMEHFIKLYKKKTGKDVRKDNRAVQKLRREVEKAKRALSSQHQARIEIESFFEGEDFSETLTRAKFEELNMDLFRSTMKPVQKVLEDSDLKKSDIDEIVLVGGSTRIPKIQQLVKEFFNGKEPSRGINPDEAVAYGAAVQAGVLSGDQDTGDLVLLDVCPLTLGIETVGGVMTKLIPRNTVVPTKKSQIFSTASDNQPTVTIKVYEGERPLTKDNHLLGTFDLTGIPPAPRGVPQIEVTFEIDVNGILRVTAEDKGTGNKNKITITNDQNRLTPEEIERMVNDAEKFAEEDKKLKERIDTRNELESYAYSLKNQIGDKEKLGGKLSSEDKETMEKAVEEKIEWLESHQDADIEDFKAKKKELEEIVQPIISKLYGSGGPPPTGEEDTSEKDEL
UniProt Q60932: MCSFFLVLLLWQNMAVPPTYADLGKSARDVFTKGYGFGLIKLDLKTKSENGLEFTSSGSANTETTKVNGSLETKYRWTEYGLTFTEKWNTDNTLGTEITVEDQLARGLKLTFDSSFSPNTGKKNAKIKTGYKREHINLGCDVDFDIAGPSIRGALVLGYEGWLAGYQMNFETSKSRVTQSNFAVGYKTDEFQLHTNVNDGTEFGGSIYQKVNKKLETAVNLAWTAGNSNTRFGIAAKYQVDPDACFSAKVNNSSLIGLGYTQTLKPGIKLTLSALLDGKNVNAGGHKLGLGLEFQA

Target: Grp78 (Bip), mouse testis (mouse (endogenous in testis)) (UniProt P20029)
Assay: co-IP; mouse testis lysate (400 ug protein, RIPA lysis buffer with 1% NP-40, 0.15 M NaCl, pH 7.4), precleared with normal rabbit serum, antibody overnight at room temperature, Protein A/G PLUS-agarose, Western blot

binding: binds
Substance: VDAC1, mouse testis (from UniProt Q60932)
